In publication PMC5665977:
No constants are given. Whether binding was seen depends on the method and setting. In cells and extracts the contact can be indirect. Some binding calls cover weakened binding; strength is not graded here. For part of these data: Sequences can lack the tags named with a protein. Blank lines part the entries; values can stand above or below the binder they belong to.

By UniProt entry, the sequences of proteins in these tests, tags left out. Residues count along the entry.
UniProt P00830, residues 34-511: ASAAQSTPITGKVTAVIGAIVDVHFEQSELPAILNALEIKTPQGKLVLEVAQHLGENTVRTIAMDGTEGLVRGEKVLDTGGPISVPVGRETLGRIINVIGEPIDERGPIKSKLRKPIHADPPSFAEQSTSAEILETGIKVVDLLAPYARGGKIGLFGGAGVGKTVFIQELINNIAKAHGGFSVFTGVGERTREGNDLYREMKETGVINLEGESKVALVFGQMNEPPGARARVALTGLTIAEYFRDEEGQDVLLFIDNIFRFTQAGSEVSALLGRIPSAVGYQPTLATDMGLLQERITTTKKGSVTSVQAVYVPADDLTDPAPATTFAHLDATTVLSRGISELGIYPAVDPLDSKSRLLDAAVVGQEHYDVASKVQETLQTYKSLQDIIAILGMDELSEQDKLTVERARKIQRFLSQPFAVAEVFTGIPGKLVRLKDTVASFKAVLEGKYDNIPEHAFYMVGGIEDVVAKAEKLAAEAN

Assays:
[1] = target: T1, Cbp3^ProtA (S. cerevisiae) (UniProt P21560); assay: co-IP + native gel or EMSA; isolated Cbp3^ProtA-containing complexes analysed by BN-PAGE and second dimension SDS-PAGE
T1 sequence: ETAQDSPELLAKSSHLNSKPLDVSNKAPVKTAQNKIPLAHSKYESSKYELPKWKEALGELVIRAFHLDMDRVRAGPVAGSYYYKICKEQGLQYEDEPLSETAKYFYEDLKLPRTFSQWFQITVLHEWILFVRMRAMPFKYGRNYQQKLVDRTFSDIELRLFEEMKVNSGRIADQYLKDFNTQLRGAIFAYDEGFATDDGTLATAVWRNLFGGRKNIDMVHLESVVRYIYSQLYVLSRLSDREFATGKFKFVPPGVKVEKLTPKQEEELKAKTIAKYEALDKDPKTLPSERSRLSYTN

[2] = target: T2, Atp10^ProtA (S. cerevisiae) (UniProt P18496); assay: co-IP + native gel or EMSA; Atp10^ProtA complexes purified by IgG-affinity chromatography, eluted natively by TEV cleavage, analysed by BN-PAGE (in part second dimension SDS-PAGE) with western blotting or autoradiography
T2 sequence: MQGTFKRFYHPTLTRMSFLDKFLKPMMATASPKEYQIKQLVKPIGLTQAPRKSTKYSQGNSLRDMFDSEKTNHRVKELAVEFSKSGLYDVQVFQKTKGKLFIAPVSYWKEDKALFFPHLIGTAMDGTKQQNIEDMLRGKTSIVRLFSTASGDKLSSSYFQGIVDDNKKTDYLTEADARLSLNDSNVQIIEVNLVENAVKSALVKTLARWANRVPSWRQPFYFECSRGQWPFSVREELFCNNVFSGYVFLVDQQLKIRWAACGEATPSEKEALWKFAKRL

[3] = target: T3, Ina22^FLAG (S. cerevisiae) (UniProt P40576); assay: co-IP + native gel or EMSA; native anti-FLAG isolation of Ina22^FLAG complexes from chloramphenicol-pretreated mitochondria after in organello labelling; BN-PAGE, second dimension SDS-PAGE, autoradiography and western blotting
T3 sequence: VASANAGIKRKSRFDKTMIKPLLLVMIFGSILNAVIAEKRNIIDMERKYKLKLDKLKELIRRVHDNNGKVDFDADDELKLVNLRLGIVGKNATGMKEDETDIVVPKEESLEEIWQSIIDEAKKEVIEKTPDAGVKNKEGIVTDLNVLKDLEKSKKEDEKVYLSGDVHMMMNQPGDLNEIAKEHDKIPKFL

[4] = target: T2, Atp10^ProtA (S. cerevisiae); assay: co-IP; IgG-affinity chromatography of Atp10^ProtA; mitochondria (wild-type or ina22Δ background, control or chloramphenicol-pretreated, in part after in organello [35S] labelling) solubilised in 1% digitonin, 160 mM NaCl, 20 mM Tris-HCl pH 7.5, 10% glycerol (low stringency), 4 °C
[5] = target: T4, Ina22 (S. cerevisiae (endogenous in BY4741 mitochondria)) (UniProt P40576); assay: co-IP; rabbit antiserum (anti-Ina22, anti-Ina17 or anti-Atp23) coupled to Protein A sepharose; mitochondria solubilised in 1% digitonin, 160 mM NaCl, 20 mM Tris-HCl pH 7.5, 10% glycerol, 4 °C; wild-type or ina22Δ mitochondria, control or chloramphenicol-pretreated, in part after in organello [35S] labelling
T4 sequence: T3 sequence

[6] = target: T5, Ina17 (S. cerevisiae (endogenous in BY4741 mitochondria)) (UniProt Q02888); assay: as above
T5 sequence: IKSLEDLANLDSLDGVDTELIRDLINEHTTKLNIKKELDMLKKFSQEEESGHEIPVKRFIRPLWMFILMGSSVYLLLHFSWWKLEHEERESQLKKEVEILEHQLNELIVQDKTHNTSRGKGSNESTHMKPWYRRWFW

[7] = target: T3, Ina22^FLAG (S. cerevisiae); assay: cross-linking; chemical crosslinking of mitochondria (250 μM cross-linker, 20 mM HEPES pH 7.4, 100 mM NaCl, on ice 30 min), in part after radiolabeling of mitochondrial-encoded proteins; Ina22^FLAG purified under denaturing conditions (1% SDS, then Triton X100); autoradiography or western blotting
[8] = target: T1, Cbp3^ProtA (S. cerevisiae); assay: co-IP; IgG-affinity chromatography of Cbp3, Cbp4 or Cbp6 with a C-terminal Protein A tag from mitochondria, in part after radiolabeling of mitochondrial-encoded proteins
[9] = target: T2, Atp10^ProtA (S. cerevisiae); assay: co-IP; two-step: Atp10^ProtA complexes isolated natively by IgG-affinity chromatography and TEV cleavage, the eluate then immunoprecipitated with anti-Atp2 antibodies or control pre-immune serum; western blotting
[10] = target: Atp2 (S. cerevisiae (endogenous in BY4741-derived mitochondria)) (UniProt P00830); assay: as above
[11] = target: T6, Cbp4 with a C-terminal Protein A tag (S. cerevisiae) (UniProt P37267); assay: co-IP; IgG-affinity chromatography of Cbp3, Cbp4 or Cbp6 with a C-terminal Protein A tag from mitochondria, in part after radiolabeling of mitochondrial-encoded proteins
T6 sequence: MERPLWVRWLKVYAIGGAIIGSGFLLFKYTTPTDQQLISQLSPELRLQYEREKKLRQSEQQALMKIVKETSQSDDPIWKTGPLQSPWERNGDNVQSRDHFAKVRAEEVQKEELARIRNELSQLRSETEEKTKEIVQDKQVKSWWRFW

[12] = target: T7, Cbp6 with a C-terminal Protein A tag (S. cerevisiae) (UniProt P07253); assay: as above
T7 sequence: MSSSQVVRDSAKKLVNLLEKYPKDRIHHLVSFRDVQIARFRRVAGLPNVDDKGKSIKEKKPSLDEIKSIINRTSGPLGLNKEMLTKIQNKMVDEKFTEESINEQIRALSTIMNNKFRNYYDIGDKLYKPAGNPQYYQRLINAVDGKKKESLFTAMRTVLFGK

B2: Atp23 (enzyme, UniProt P53722 1-227)
chain: MNSSGDNAGFEWWRRTMQYKTGIGLTPEEKTRYEDDSKARELKKECLKCYEYRDWMLKYSPTVRFMVQAITKLNKGSDSKFDDSKIICDYCPDWKGGGFHPELGILLCQNRLRDKWHLEDTLSHELIHYFDDLKWQIDWLNLKHHACSEIRASSLSGECRFWEEFKRRGFRTGFHVARGHQDCVRRRAIISVSGNPNCQSKEHAAKIVDEVWDSCFADTRPFDEIYR
binding [2]: binds | binding [3]: binds | binding [4]: binds | binding [5]: binds | binding [6]: binds

B3: Ina22 fragment f2 (domain or fragment, UniProt P40576 27-168)
chain: VASANAGIKRKSRFDKTMIKPLLLVMIFGSILNAVIAEKRNIIDMERKYKLKLDKLKELIRRVHDNNGKVDFDADDELKLVNLRLGIVGKNATGMKEDETDIVVPKEESLEEIWQSIIDEAKKEVIEKTPDAGVKNKEGIVT
binding [6]: binds

B5: Ina22 fragment f1 (domain or fragment, UniProt P40576 27-188)
chain: VASANAGIKRKSRFDKTMIKPLLLVMIFGSILNAVIAEKRNIIDMERKYKLKLDKLKELIRRVHDNNGKVDFDADDELKLVNLRLGIVGKNATGMKEDETDIVVPKEESLEEIWQSIIDEAKKEVIEKTPDAGVKNKEGIVTDLNVLKDLEKSKKEDEKVYL
binding [6]: binds

B7: Ina17 (protein, UniProt Q02888 46-182)
chain: T5 sequence
binding [1]: binds | binding [11]: binds | binding [8]: binds | binding [12]: binds | binding [2]: binds | binding [4]: binds

B9: Atp4 (protein, UniProt P05626 36-244)
chain: MSSTPEKQTDPKAKANSIINAIPGNNILTKTGVLGTSAAAVIYAISNELYVINDESILLLTFLGFTGLVAKYLAPAYKDFADARMKKVSDVLNASRNKHVEAVKDRIDSVSQLQNVAETTKVLFDVSKETVELESEAFELKQKVELAHEAKAVLDSWVRYEASLRQLEQRQLAKSVISRVQSELGNPKFQEKVLQQSISEIEQLLSKLK
binding [7]: binds | binding [2]: binds | binding [9]: binds | binding [10]: binds

The remaining lines, values ahead:

binding [1]: binds
B1: Cbp4 (protein, UniProt P37267 1-147)
chain: T6 sequence

binding [1]: binds | binding [7]: binds | binding [8]: binds | binding [5]: binds
B4: cytochrome b (protein, UniProt P00163 1-385)
chain: MAFRKSNVYLSLVNSYIIDSPQPSSINYWWNMGSLLGLCLVIQIVTGIFMAMHYSSNIELAFSSVEHIMRDVHNGYILRYLHANGASFFFMVMFMHMAKGLYYGSYRSPRVTLWNVGVIIFILTIATAFLGYCCVYGQMSHWGATVITNLFSAIPFVGNDIVSWLWGGFSVSNPTIQRFFALHYLVPFIIAAMVIMHLMALHIHGSSNPLGITGNLDRIPMHSYFIFKDLVTVFLFMLILALFVFYSPNTLGHPDNYIPGNPLVTPASIVPEWYLLPFYAILRSIPDKLLGVITMFAAILVLLVLPFTDRSVVRGNTFKVLSKFFFFIFVFNFVLLGQIGACHVEVPYVLMGQIATFIYFAYFLIIVPVISTIENVLFYIGRVNK

binding [9]: binds | binding [10]: binds
B6: Atp5 (protein, UniProt P09457 18-212)
chain: ASKAAAPPPVRLFGVEGTYATALYQAAAKNSSIDAAFQSLQKVESTVKKNPKLGHLLLNPALSLKDRNSVIDAIVETHKNLDGYVVNLLKVLSENNRLGCFEKIASDFGVLNDAHNGLLKGTVTSAEPLDPKSFKRIEKALSASKLVGQGKSLKLENVVKPEIKGGLIVELGDKTVDLSISTKIQKLNKVLEDSI

binding [1]: binds | binding [11]: binds | binding [8]: binds | binding [12]: binds | binding [2]: binds | binding [4]: binds
B8: Ina22 (protein, UniProt P40576 27-216)
chain: T3 sequence
